# In paper PMC12040169 (PLOS Biology, 2025):
# This is one part of the list.
# Tested on: T1, CTL2-GFP (C. trachomatis L2/434/Bu, GFP-expressing)
# T1 construct: L2/434/Bu, GFP-expressing
# Parameters: species or system HeLa; Intracellular C. trachomatis growth in HeLa cells, bulk GFP fluorescence relative to DMSO
# Conditions: bulk GFP, single well; 28.5 h, 10 µM; inhibitor
row,Compound,% of control remaining [%]
1,C=CCC1(CC=C)CCN1C(=O)c1cccc(N2CCCC2=O)c1 [CBK282709],138.194
2,CCc1ccc(-c2cc3c(=O)[nH]nc(S)n3n2)cc1 [CBK288485],82.2069
3,O=C(CSc1nnc(-c2ccncc2)n1-c1ccccc1)Nc1ccc([N+](=O)[O-])cc1 [CBK266620],149.604
4,O=C1N/C(=N/N=C/c2ccc(O)cc2)SC1Cc1ccccc1[N+](=O)[O-] (stereo not drawn) [CBK261684],111.564
5,O=C(c1cccc(C(F)(F)F)c1)N1CCCC2(CCN(Cc3ccccc3)C2)C1 (stereo not drawn) [CBK137039],132.001
6,COc1nc(NCCN2CCOCC2)nc(Nc2ccc(Cl)cc2)n1 [CBK262541],97.4241
7,O=C(COc1ccccc1)C(C(=O)c1ccccc1)=C1Nc2ccccc2N1 [CBK263725],134.544
8,Cc1ccc(-c2csc3nc(SCC(=O)NCC4CCCO4)n(-c4ccccc4)c(=O)c23)cc1 (stereo not drawn) [CBK265610],112.081
9,CS(=O)(=O)N1CCN(c2ccccc2NC(=O)COc2ccccc2Cl)CC1 [CBK269250],101.717
10,O=C(NC1CC1)c1ccsc1NC(=O)C1C2C=CC(C2)C1C(=O)O (stereo not drawn) [CBK270322],98.1527
11,COCCNC(=O)c1ccc(-n2ccnc2)c(-n2cccc2)c1 [CBK285369],128.179
12,CC(C)COC(=O)N1CCC2(CC1)CC(=O)N(Cc1ccc(S(C)(=O)=O)cc1)C2=O [CBK155948],137.788
13,CCOC(=O)CSc1nnc(NS(=O)(=O)c2cccc(Cl)c2C)s1 [CBK004669],90.5164
14,CCOCCn1nc(C)cc1C(=O)NC(CC)c1cn2cccnc2n1 (stereo not drawn) [CBK307377],189.394
15,Nc1nc(CCN2CCOCC2=O)cs1 [CBK003792],101.67
16,COCCNc1nc(-c2ccccc2)ccc1C(=O)Nc1cccc(OC)c1 [CBK105886],171.206
17,COCCC(=O)N1C[C@@H]2C[C@H](C1)c1ccc(NC(=O)Nc3cccc(F)c3)c(=O)n1C2 [CBK289075],128.964
18,CCOC(=O)C(NC(=O)C1CCC(=O)N1)c1cccc(C)c1C (stereo not drawn) [CBK305472],155.154
19,Cc1cccc(OCC2CCCN(C(=O)c3cn(C)cn3)C2)c1 (stereo not drawn) [CBK307021],124.37
20,O=C(NCCN1CCC(O)(c2ccc(F)cc2)CC1)C1CCCCC1 [CBK283165],108.546
21,Cc1cc(N(C)Cc2ccccc2Br)nc(N)n1 [CBK297753],70.2661
22,CC1(c2ccccc2)NC(NC2CCCCC2)=NC1=O (stereo not drawn) [CBK008081],149.602
23,Cc1nnc(SCc2nc(N)nc(Nc3ccccc3)n2)s1 [CBK266436],118.038
24,CN1CCN(C(=S)SCC(=O)O)CC1 [CBK261549C],102.716
25,O=C(NCCc1c[nH]c2ccc(Cl)cc12)c1cccnc1 [CBK159778],95.6449
26,Cc1nn(-c2ncccn2)c2c1C(C(=O)c1ccccc1)CC(=O)N2 (stereo not drawn) [CBK287890],145.07

# 4 structures from above, arranged by molecular weight, high to low:
row,Compound,% of control remaining [%]
17,COCCC(=O)N1C[C@@H]2C[C@H](C1)c1ccc(NC(=O)Nc3cccc(F)c3)c(=O)n1C2 [CBK289075],128.964
9,CS(=O)(=O)N1CCN(c2ccccc2NC(=O)COc2ccccc2Cl)CC1 [CBK269250],101.717
10,O=C(NC1CC1)c1ccsc1NC(=O)C1C2C=CC(C2)C1C(=O)O (stereo not drawn) [CBK270322],98.1527
21,Cc1cc(N(C)Cc2ccccc2Br)nc(N)n1 [CBK297753],70.2661

# Next part

row,Compound,% of control remaining [%]
1,COc1cncc(-c2cnc(N)c(N3CCOCC3)n2)c1 [CBK063360],171.27
2,COc1cccc(NC(=O)N2CCN3C(=O)[C@H](CC4CCCCC4)NC(=O)[C@H]3C2)c1 [CBK289615],92.7843
3,Cc1cnc2[nH]c(C3CCCN(C(=O)c4cnn(C)c4C)C3)cc2c1 (stereo not drawn) [CBK285171],100.302
4,CC(=O)c1c(C)oc2ccc(N(C(=O)c3cccc([N+](=O)[O-])c3)S(=O)(=O)c3cccc4cccnc34)cc12 [CBK267044],109.452
5,COc1cccc(CC(=O)Nc2ccc3c(C)cc(C)nc3n2)c1 [CBK287992],147.416
6,Cc1cnn(CC(=O)N2CCC(c3cc4ncccc4[nH]3)CC2)c1 [CBK284458],154.264
7,COc1ccc(C(=O)CN2CCN(CCN3C(=O)c4cccc5cccc(c45)C3=O)CC2)cc1 [CBK074628],135.696
8,CC(C)(C)OC(=O)N1CCN(c2ccc([N+](=O)[O-])cn2)CC1 [CBK000134],85.9434
9,COc1ccc2c(c1)OC1(CCN(C(=O)c3cc(OC)c(C)c(OC)c3)CC1)NC2=O [CBK166244],123.419
10,CCn1cc(C(=O)O)c(=O)c2cc(F)c(N3CCN(C(=O)c4ccc(C)cc4)CC3)cc21 [CBK286986],150.948
11,CC(CCCC(C)(C)O)CC1OCCC(C)O1 (stereo not drawn) [CBK019986],107.249
12,Cc1onc(-c2c(Cl)cccc2Cl)c1N(C)C(=O)N1CCCCC1 [CBK086555],80.0839
13,Cc1cc(NC(=O)c2cccc(N3C(=O)CCC3=O)c2)no1 [CBK287352],82.2964
14,CCN(CC(C)C#N)C(=O)c1nnn(-c2ccc3ncccc3c2)c1C (stereo not drawn) [CBK305292],148.405
15,Cc1occc1-c1nnc(SCC(=O)Nc2c(C)n(C)n(-c3ccccc3)c2=O)o1 [CBK269042],87.5344
16,CC(C)(C)Cc1ccc(CC(=O)O)c(OCc2ccccc2)n1 [CBK012508],124.24
17,NCc1ccc(CN(Cc2ccc(-c3ccccc3)cc2)C(=O)Nc2c(F)cccc2F)cc1 [CBK046115C],41.1804
18,COCCCNC(=S)Nc1ccc(N2CCOCC2)c2nonc12 [CBK266947],158.847
19,CCn1cc(S(=O)(=O)NC2(c3ccc(F)cc3)CC2)cn1 [CBK282801],85.1844
20,C/C(=N\NC(=O)CSc1nc2ccccc2n1Cc1ccccc1)c1ccco1 [CBK263180],98.8829
21,Cn1ccc(C(=O)NC(Cc2ccsc2)c2cccnc2)n1 (stereo not drawn) [CBK285117],77.3348
22,Cc1c(C(=O)O)sc(S(=O)(=O)N2CCN(C(=O)CCc3cccs3)CC2)c1C(=O)O [CBK297135],129.081
23,Cc1nnsc1C(=O)Nc1ncn(CC(=O)N2CCCCCC2)n1 [CBK305522],125.192
24,COc1ccc(CCC(=O)Nc2ccccc2N2CCCNCC2)cc1 [CBK024286T],125.616
25,O=C(Cc1cccs1)N1CCC(c2cc3ncccc3[nH]2)CC1 [CBK283393],113.824
26,Cc1cc(CNC(=O)COc2ccc(C#N)cc2)c2ccccc2n1 [CBK270129],126.623

row,Compound,% of control remaining [%]
1,COc1cc(Cl)c(C)cc1NC(=O)c1ncn(-c2ccccc2)n1 [CBK269456],141.751
2,O=C(O)COc1ccc(Br)cc1/C=C\c1nc(O)c([N+](=O)[O-])c(=O)[nH]1 [CBK267223],157.083
3,O=C(CSc1nc2cccnc2[nH]1)Nc1cc(Cl)ccc1Cl [CBK264644],100
4,Cn1c(=O)oc2cc(S(=O)(=O)NCCC(=O)O)ccc21 [CBK267567],133.519
5,CCc1noc(C)c1C(=O)N1CC[C@@H](CNC(=O)N2CCCC2)[C@H](O)C1 [CBK307222],130.068
6,Fc1ccc(CCN2CCC(Oc3nccnc3OCCN3CCOCC3)CC2)cc1 [CBK082937T],94.8687
7,Cc1cccc(OCc2nnc(SCC(=O)Nc3cc(C(F)(F)F)ccc3Cl)o2)c1C [CBK267204],171.864
8,Cc1csc2nc(-c3ccccc3)cn12 [CBK098072],72.1798
9,O=C(Nc1cccc(N2CCNCC2)c1)C1CCCO1 (stereo not drawn) [CBK004768T],100
10,O=[N+]([O-])c1ccc(N2CCNCC2)cc1NCCO [CBK262851],117.568
11,O=C1CCC2(CCN1)CCN(Cc1cccc(-c3ccco3)c1)CC2 [CBK307264],100.937
12,O=[N+]([O-])c1cccc(S(=O)(=O)NCCSc2ccccc2)c1 [CBK267862],122.79
13,O=C(NCc1ccncc1)C1CC1c1ccccc1 (stereo not drawn) [CBK288242],150.204
14,CN(CC(=O)O/N=C(\N)c1ccccn1)S(=O)(=O)c1ccc(Br)cc1 [CBK268617],153.508
15,CCN1C(=O)c2cccc3c(S(=O)(=O)Nc4cccc(C(=O)O)c4)ccc1c23 [CBK299838],162.049
16,Cc1cc2nc(NC(=N)N)nc(C)c2cc1C [CBK262269],84.1179
17,CCOC(=O)c1[nH]c2c([N+](=O)[O-])cccc2c1O [CBK115315],97.6624
18,C[C@H](NC(=O)OC1CC[C@@]2(c3ccccc3)CCN(C)[C@H]2C1)c1cccc2ccccc12 (stereo partly drawn) [CBK003664],92.1451
19,O=C(O)CSCC(=O)N(Cc1ccccc1)c1nc(-c2ccccc2)c(-c2ccccc2)s1 [CBK296138],126.625
20,Cn1ncc2c1CCCN(C(=O)CCCOc1ccccc1F)C2 [CBK285278],135.512
21,CCC(C)(C)c1ccc(S(=O)(=O)N2CCN(Cc3ccc(O)c(F)c3)CC2)cc1 [CBK062968],109.5
22,COCCOCC(C)NC(=O)COc1nn(C)c2nc(C)cc(C)c12 (stereo not drawn) [CBK305177],88.8527
23,CNCc1cccc(OC)c1OCc1ccccc1F [CBK269949C],90.4752
24,CN1CCN(c2nc(-c3ccoc3)cnc2N)CC1 [CBK063362],167.539
25,CC(C)N(CCC(c1ccccc1)c1cc(Br)ccc1OCc1ccccc1)C(C)C (stereo not drawn) [CBK017656],66.3297
26,CCOC(=O)c1cc(C)sc1NC(=O)CCC(=O)O [CBK265412],105.48
